Data reported in publication PMC12713192.
Results are given in words; binding and its absence hold for the method and conditions named. In cells and extracts the contact can be indirect. Some binding calls cover weakened binding; strength is not graded here. For some of these results: Sequences can lack the tags named with a protein.

Amino acid sequences for entries named in this document (tags omitted). A change or cut given only in a name is not applied to a line headed by its entry. Chains listed by the source or under a name are the forms on record and can include a tag or linker.
UniProt Q13131: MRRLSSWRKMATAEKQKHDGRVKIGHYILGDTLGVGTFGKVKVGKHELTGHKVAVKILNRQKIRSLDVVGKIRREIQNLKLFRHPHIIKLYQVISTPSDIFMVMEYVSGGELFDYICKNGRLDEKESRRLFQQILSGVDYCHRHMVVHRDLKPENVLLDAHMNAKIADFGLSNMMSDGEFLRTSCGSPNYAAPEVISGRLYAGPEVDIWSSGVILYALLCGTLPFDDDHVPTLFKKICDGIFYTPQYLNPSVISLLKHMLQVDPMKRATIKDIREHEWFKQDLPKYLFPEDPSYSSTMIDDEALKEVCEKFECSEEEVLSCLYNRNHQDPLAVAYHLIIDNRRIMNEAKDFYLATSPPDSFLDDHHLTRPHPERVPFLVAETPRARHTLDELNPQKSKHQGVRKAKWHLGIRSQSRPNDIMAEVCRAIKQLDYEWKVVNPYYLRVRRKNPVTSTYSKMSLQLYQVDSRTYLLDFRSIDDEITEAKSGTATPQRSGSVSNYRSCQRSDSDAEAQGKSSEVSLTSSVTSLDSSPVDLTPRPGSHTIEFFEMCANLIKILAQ
Flag-AMPKα1, full length (Q13131, form named): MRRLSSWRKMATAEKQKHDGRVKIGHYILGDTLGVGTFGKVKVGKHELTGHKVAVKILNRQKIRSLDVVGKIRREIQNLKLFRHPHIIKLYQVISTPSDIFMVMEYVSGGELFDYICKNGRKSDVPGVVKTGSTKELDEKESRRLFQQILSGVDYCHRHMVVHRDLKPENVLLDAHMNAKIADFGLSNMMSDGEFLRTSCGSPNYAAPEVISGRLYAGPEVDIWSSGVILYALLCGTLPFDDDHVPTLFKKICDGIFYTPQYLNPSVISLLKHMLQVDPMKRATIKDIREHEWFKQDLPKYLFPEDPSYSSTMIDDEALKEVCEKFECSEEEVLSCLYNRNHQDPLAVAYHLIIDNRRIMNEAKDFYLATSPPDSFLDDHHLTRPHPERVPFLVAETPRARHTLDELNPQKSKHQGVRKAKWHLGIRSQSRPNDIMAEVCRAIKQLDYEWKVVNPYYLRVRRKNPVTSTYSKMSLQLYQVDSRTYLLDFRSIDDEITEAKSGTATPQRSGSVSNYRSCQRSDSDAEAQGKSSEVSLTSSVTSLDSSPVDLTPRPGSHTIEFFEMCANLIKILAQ
Flag-AMPKα1 P2 (Δ295-396 aa) (Q13131, form named): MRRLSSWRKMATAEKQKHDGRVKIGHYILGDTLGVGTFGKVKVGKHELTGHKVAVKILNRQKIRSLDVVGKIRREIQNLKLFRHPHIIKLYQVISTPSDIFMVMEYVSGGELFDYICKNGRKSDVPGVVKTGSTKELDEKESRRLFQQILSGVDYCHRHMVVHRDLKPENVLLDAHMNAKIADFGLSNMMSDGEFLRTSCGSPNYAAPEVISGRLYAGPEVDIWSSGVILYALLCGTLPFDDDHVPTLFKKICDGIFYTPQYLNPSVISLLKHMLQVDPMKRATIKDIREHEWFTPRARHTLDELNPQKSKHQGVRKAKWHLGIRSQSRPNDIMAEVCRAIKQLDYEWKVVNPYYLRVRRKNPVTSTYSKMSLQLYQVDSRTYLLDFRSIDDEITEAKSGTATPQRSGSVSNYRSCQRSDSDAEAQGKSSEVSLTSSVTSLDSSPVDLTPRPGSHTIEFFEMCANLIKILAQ
Flag-AMPKα1 P3 (Δ397-574 aa) (Q13131, form named): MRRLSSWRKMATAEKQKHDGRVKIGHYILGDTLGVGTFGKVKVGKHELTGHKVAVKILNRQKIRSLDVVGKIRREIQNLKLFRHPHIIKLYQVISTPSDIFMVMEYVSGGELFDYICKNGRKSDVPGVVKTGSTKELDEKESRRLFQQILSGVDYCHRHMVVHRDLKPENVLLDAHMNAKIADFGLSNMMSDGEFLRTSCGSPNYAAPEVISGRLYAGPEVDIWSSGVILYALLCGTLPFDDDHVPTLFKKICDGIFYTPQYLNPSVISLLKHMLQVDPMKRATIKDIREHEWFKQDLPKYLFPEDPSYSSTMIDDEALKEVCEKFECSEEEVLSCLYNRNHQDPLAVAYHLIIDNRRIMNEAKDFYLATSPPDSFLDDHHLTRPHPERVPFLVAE
UniProt Q96SW2: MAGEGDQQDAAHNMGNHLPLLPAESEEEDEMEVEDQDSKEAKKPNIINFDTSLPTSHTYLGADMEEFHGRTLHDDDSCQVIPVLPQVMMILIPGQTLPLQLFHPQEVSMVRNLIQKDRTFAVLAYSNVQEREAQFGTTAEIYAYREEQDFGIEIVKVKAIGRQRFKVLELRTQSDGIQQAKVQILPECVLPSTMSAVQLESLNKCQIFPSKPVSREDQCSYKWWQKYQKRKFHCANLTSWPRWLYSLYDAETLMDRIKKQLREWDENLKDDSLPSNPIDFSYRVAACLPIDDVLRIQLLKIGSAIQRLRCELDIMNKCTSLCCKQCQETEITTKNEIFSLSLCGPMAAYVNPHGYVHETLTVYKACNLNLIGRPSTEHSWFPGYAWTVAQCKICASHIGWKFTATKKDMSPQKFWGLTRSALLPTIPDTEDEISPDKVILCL

Experiments:
[1] = biological target: AMPKα1, endogenous (human (endogenous in HUVECs)) (UniProt Q13131); test: co-IP; HUVECs transfected with increasing amounts of myc-KSR2 plasmid (0, 1, 2, 3 μg) for 48 h, MG132 (10 μM), oxLDL (100 μg/mL) 24 h; endogenous AMPKα1 and CRBN
[2] = biological target: Flag-AMPKα1, full length (human) (UniProt Q13131); test: co-IP; HEK293T cells transfected with myc-KSR2 (wt) or myc-KSR2(373T), Flag-AMPKα1 and myc-CRBN for 48 h; immunoblotting
[3] = biological target: AMPKα1, endogenous (human (endogenous in HUVECs)) (UniProt Q13131); test: co-IP; endogenous proteins in HUVECs, with or without oxLDL (100 μg/mL, 24 h); immunoprecipitation with AMPKα1 or control IgG antibodies; native lysis buffer, protein A/G magnetic beads, PBST washes
[4] = biological target: Flag-AMPKα1 P2 (Δ295-396 aa) (human) (UniProt Q13131); test: co-IP; HEK293T cells transfected with myc-KSR2 and full-length or truncated Flag-AMPKα1 for 48 h; immunoblotting
[5] = biological target: Flag-AMPKα1 P3 (Δ397-574 aa) (human) (UniProt Q13131); test: as above
[6] = biological target: Flag-AMPKα1, full length (human) (UniProt Q13131); test: as above

Molecule: CRBN, endogenous (from UniProt Q96SW2 1-442)
- binding [1]: binds

Molecule: myc-CRBN, in HEK293T cells (from UniProt Q96SW2 1-442)
- binding [2]: binds

B1: kinase suppressor of Ras 2 (KSR2), endogenous (protein, UniProt Q6VAB6 1-950)
chain: MDEENMTKSEEQQPLSLQKALQQCELVQNMIDLSISNLEGLRTKCATSNDLTQKEIRTLESKLVKYFSRQLSCKKKVALQERNAELDGFPQLRHWFRIVDVRKEVLEEISPGQLSLEDLLEMTDEQVCETVEKYGANREECARLNASLSCLRNVHMSGGNLSKQDWTIQWPTTETGKENNPVCPPEPTPWIRTHLSQSPRVPSKCVQHYCHTSPTPGAPVYTHVDRLTVDAYPGLCPPPPLESGHRSLPPSPRQRHAVRTPPRTPNIVTTVTPPGTPPMRKKNKLKPPGTPPPSSRKLIHLIPGFTALHRSKSHEFQLGHRVDEAHTPKAKKKSKPLNLKIHSSVGSCENIPSQQRSPLLSERSLRSFFVGHAPFLPSTPPVHTEANFSANTLSVPRWSPQIPRRDLGNSIKHRFSTKYWMSQTCTVCGKGMLFGLKCKNCKLKCHNKCTKEAPPCHLLIIHRGDPARLVRTESVPCDINNPLRKPPRYSDLHISQTLPKTNKINKDHIPVPYQPDSSSNPSSTTSSTPSSPAPPLPPSATPPSPLHPSPQCTRQQKNFNLPASHYYKYKQQFIFPDVVPVPETPTRAPQVILHPVTSNPILEGNPLLQIEVEPTSENEEVHDEAEESEDDFEEMNLSLLSARSFPRKASQTSIFLQEWDIPFEQLEIGELIGKGRFGQVYHGRWHGEVAIRLIDIERDNEDQLKAFKREVMAYRQTRHENVVLFMGACMSPPHLAIITSLCKGRTLYSVVRDAKIVLDVNKTRQIAQEIVKGMGYLHAKGILHKDLKSKNVFYDNGKVVITDFGLFSISGVLQAGRREDKLRIQNGWLCHLAPEIIRQLSPDTEEDKLPFSKHSDVFALGTIWYELHAREWPFKTQPAEAIIWQMGTGMKPNLSQIGMGKEISDILLFCWAFEQEERPTFTKLMDMLEKLPKRNRRLSHPGHFWKSAEL
- binding [3]: binds

B2: myc-KSR2 (wild type), in HEK293T cells (protein, UniProt Q6VAB6 1-950)
chain: MDEENMTKSEEQQPLSLQKALQQCELVQNMIDLSISNLEGLRTKCATSNDLTQKEIRTLESKLVKYFSRQLSCKKKVALQERNAELDGFPQLRHWFRIVDVRKEVLEEISPGQLSLEDLLEMTDEQVCETVEKYGANREECARLNASLSCLRNVHMSGGNLSKQDWTIQWPTTETGKENNPVCPPEPTPWIRTHLSQSPRVPSKCVQHYCHTSPTPGAPVYTHVDRLTVDAYPGLCPPPPLESGHRSLPPSPRQRHAVRTPPRTPNIVTTVTPPGTPPMRKKNKLKPPGTPPPSSRKLIHLIPGFTALHRSKSHEFQLGHRVDEAHTPKAKKKSKPLNLKIHSSVGSCENIPSQQRSPLLSERSLRSFFVGHAPFLPSTPPVHTEANFSANTLSVPRWSPQIPRRDLGNSIKHRFSTKYWMSQTCTVCGKGMLFGLKCKNCKLKCHNKCTKEAPPCHLLIIHRGDPARLVRTESVPCDINNPLRKPPRYSDLHISQTLPKTNKINKDHIPVPYQPDSSSNPSSTTSSTPSSPAPPLPPSATPPSPLHPSPQCTRQQKNFNLPASHYYKYKQQFIFPDVVPVPETPTRAPQVILHPVTSNPILEGNPLLQIEVEPTSENEEVHDEAEESEDDFEEMNLSLLSARSFPRKASQTSIFLQEWDIPFEQLEIGELIGKGRFGQVYHGRWHGEVAIRLIDIERDNEDQLKAFKREVMAYRQTRHENVVLFMGACMSPPHLAIITSLCKGRTLYSVVRDAKIVLDVNKTRQIAQEIVKGMGYLHAKGILHKDLKSKNVFYDNGKVVITDFGLFSISGVLQAGRREDKLRIQNGWLCHLAPEIIRQLSPDTEEDKLPFSKHSDVFALGTIWYELHAREWPFKTQPAEAIIWQMGTGMKPNLSQIGMGKEISDILLFCWAFEQEERPTFTKLMDMLEKLPKRNRRLSHPGHFWKSAEL
- binding [4]: binds
- binding [5]: binds
- binding [6]: binds

B3: myc-KSR2 (wild type), in HUVECs (protein, UniProt Q6VAB6 1-950)
chain: MDEENMTKSEEQQPLSLQKALQQCELVQNMIDLSISNLEGLRTKCATSNDLTQKEIRTLESKLVKYFSRQLSCKKKVALQERNAELDGFPQLRHWFRIVDVRKEVLEEISPGQLSLEDLLEMTDEQVCETVEKYGANREECARLNASLSCLRNVHMSGGNLSKQDWTIQWPTTETGKENNPVCPPEPTPWIRTHLSQSPRVPSKCVQHYCHTSPTPGAPVYTHVDRLTVDAYPGLCPPPPLESGHRSLPPSPRQRHAVRTPPRTPNIVTTVTPPGTPPMRKKNKLKPPGTPPPSSRKLIHLIPGFTALHRSKSHEFQLGHRVDEAHTPKAKKKSKPLNLKIHSSVGSCENIPSQQRSPLLSERSLRSFFVGHAPFLPSTPPVHTEANFSANTLSVPRWSPQIPRRDLGNSIKHRFSTKYWMSQTCTVCGKGMLFGLKCKNCKLKCHNKCTKEAPPCHLLIIHRGDPARLVRTESVPCDINNPLRKPPRYSDLHISQTLPKTNKINKDHIPVPYQPDSSSNPSSTTSSTPSSPAPPLPPSATPPSPLHPSPQCTRQQKNFNLPASHYYKYKQQFIFPDVVPVPETPTRAPQVILHPVTSNPILEGNPLLQIEVEPTSENEEVHDEAEESEDDFEEMNLSLLSARSFPRKASQTSIFLQEWDIPFEQLEIGELIGKGRFGQVYHGRWHGEVAIRLIDIERDNEDQLKAFKREVMAYRQTRHENVVLFMGACMSPPHLAIITSLCKGRTLYSVVRDAKIVLDVNKTRQIAQEIVKGMGYLHAKGILHKDLKSKNVFYDNGKVVITDFGLFSISGVLQAGRREDKLRIQNGWLCHLAPEIIRQLSPDTEEDKLPFSKHSDVFALGTIWYELHAREWPFKTQPAEAIIWQMGTGMKPNLSQIGMGKEISDILLFCWAFEQEERPTFTKLMDMLEKLPKRNRRLSHPGHFWKSAEL
- binding [1]: binds
